The experiment addresses Shiftless (SFL), isoform 1, C-terminal Flag-tagged (human) (UniProt Q9NUL5). Kind of experiment: pull-down; pull-down assay with SFL (Supplementary Fig. S4g); methods not shown.

Amino acid sequences for entries named in this document (tags omitted).
UniProt Q96I24: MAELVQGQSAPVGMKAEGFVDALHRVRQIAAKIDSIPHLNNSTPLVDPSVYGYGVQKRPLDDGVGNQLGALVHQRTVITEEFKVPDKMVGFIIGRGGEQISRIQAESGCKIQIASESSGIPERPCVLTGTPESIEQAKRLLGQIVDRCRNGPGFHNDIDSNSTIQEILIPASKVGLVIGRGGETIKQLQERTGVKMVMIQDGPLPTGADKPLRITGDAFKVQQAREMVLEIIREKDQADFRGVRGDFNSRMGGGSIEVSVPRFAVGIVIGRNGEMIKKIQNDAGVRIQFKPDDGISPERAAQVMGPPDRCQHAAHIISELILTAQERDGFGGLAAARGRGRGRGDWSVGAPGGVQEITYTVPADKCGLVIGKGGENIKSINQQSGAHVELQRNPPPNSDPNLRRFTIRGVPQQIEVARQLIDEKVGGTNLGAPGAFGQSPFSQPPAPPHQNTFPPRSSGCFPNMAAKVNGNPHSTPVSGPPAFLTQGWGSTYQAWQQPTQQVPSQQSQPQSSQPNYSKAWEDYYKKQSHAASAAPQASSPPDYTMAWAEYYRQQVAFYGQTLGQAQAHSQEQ

From publication PMC12166091 come the findings set out here.

These are yes or no findings as the source states them, for the method shown. In cells and extracts the contact can be indirect. Some results given as binding are weak or reduced against the parent protein; the word gives no strength.

Consider “Stem Loop Binding Protein (SLBP), of the cell lysate (from UniProt Q14493 1-270)”, for which the binding result is reported as “binds”.
On to “Far Upstream Element Binding Protein 3 (FUBP3), of the cell lysate (from UniProt Q96I24 1-572)”, for which the binding result is recorded as “binds”.
